Experimental data as given in paper PMC8569552.
No constants are given. Whether binding was seen depends on the method and setting. In cells and extracts the contact can be indirect. A yes stands for co-enrichment or nearness to the bait. Other partners may have been found.

By UniProt entry, the sequences of proteins in these tests, tags left out. Residues count along the entry.
sLUR-517GFP (Q14160, residues 1-517): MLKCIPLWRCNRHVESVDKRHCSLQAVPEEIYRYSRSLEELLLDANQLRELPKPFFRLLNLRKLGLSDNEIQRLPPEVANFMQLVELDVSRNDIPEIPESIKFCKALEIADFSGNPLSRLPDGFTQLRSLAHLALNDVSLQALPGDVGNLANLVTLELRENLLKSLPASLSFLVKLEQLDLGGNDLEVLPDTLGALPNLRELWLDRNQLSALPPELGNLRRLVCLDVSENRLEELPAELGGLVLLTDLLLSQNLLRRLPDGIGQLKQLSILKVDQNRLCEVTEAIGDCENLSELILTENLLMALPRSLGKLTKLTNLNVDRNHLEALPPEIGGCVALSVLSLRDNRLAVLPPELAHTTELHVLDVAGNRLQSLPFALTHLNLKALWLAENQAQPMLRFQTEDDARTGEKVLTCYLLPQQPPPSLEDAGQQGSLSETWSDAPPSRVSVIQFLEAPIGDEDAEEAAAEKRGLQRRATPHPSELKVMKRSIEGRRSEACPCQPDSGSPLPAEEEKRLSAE
sLUR-420GFP (Q14160, residues 1-420): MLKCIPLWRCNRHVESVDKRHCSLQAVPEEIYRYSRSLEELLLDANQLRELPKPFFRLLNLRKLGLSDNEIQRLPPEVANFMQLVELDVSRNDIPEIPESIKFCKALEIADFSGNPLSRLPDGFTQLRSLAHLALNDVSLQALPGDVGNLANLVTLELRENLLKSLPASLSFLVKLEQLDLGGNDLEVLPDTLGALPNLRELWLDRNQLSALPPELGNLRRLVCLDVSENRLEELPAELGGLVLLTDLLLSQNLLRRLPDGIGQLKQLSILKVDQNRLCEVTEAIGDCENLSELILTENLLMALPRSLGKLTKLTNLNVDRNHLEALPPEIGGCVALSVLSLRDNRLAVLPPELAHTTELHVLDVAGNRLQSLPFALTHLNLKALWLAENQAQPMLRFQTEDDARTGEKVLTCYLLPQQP
sLUR-402GFP (Q14160, residues 1-402): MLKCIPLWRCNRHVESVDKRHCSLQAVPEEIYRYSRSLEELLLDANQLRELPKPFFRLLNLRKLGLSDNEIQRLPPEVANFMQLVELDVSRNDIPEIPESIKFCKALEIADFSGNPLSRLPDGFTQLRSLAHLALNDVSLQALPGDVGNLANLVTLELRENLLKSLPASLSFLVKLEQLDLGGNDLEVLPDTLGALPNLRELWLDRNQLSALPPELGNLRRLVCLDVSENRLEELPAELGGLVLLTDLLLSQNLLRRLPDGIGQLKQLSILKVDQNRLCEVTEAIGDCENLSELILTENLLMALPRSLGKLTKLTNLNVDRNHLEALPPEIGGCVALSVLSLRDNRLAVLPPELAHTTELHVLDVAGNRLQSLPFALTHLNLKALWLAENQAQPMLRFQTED

B1: Llgl2 (protein, UniProt Q6P1M3 1-1020)
chain: MRRFLRPGHDPVRERLKRDLFQFNKTVEHGFPHQPSALGYSPSLRILAIGTRSGAIKLYGAPGVEFMGLHQENNAVTQIHLLPGQCQLVTLLDDNSLHLWSLKVKGGASELQEDESFTLRGPPGAAPSATQITVVLPHSSCELLYLGTESGNVFVVQLPAFRALEDRTISSDAVLQRLPEEARHRRVFEMVEALQEHPRDPNQILIGYSRGLVVIWDLQGSRVLYHFLSSQQLENIWWQRDGRLLVSCHSDGSYCQWPVSSEAQQPEPLRSLVPYGPFPCKAITRILWLTTRQGLPFTIFQGGMPRASYGDRHCISVIHDGQQTAFDFTSRVIGFTVLTEADPAATFDDPYALVVLAEEELVVIDLQTAGWPPVQLPYLASLHCSAITCSHHVSNIPLKLWERIIAAGSRQNAHFSTMEWPIDGGTSLTPAPPQRDLLLTGHEDGTVRFWDASGVCLRLLYKLSTVRVFLTDTDPNENFSAQGEDEWPPLRKVGSFDPYSDDPRLGIQKIFLCKYSGYLAVAGTAGQVLVLELNDEAAEQAVEQVEADLLQDQEGYRWKGHERLAARSGPVRFEPGFQPFVLVQCQPPAVVTSLALHSEWRLVAFGTSHGFGLFDHQQRRQVFVKCTLHPSDQLALEGPLSRVKSLKKSLRQSFRRMRRSRVSSRKRHPAGPPGEAQEGSAKAERPGLQNMELAPVQRKIEARSAEDSFTGFVRTLYFADTYLKDSSRHCPSLWAGTNGGTIYAFSLRVPPAERRMDEPVRAEQAKEIQLMHRAPVVGILVLDGHSVPLPEPLEVAHDLSKSPDMQGSHQLLVVSEEQFKVFTLPKVSAKLKLKLTALEGSRVRRVSVAHFGSRRAEDYGEHHLAVLTNLGDIQVVSLPLLKPQVRYSCIRREDVSGIASCVFTKYGQGFYLISPSEFERFSLSTKWLVEPRCLVDSAETKNHRPGNGAGPKKAPSRARNSGTQSDGEEKQPGLVMERALLSDERVLKEIQSTLEGDRGSGNWRSHRAAVGCSLSNGGAE
B2: Dlg3 (protein, UniProt Q92796 1-817)
chain: MHKHQHCCKCPECYEVTRLAALRRLEPPGYGDWQVPDPYGPGGGNGASAGYGGYSSQTLPSQAGATPTPRTKAKLIPTGRDVGPVPPKPVPGKSTPKLNGSGPSWWPECTCTNRDWYEQVNGSDGMFKYEEIVLERGNSGLGFSIAGGIDNPHVPDDPGIFITKIIPGGAAAMDGRLGVNDCVLRVNEVDVSEVVHSRAVEALKEAGPVVRLVVRRRQPPPETIMEVNLLKGPKGLGFSIAGGIGNQHIPGDNSIYITKIIEGGAAQKDGRLQIGDRLLAVNNTNLQDVRHEEAVASLKNTSDMVYLKVAKPGSLHLNDMYAPPDYASTFTALADNHISHNSSLGYLGAVESKVSYPAPPQVPPTRYSPIPRHMLAEEDFTREPRKIILHKGSTGLGFNIVGGEDGEGIFVSFILAGGPADLSGELRRGDRILSVNGVNLRNATHEQAAAALKRAGQSVTIVAQYRPEEYSRFESKIHDLREQMMNSSMSSGSGSLRTSEKRSLYVRALFDYDRTRDSCLPSQGLSFSYGDILHVINASDDEWWQARLVTPHGESEQIGVIPSKKRVEKKERARLKTVKFHARTGMIESNRDFPGLSDDYYGAKNLKGQEDAILSYEPVTRQEIHYARPVIILGPMKDRVNDDLISEFPHKFGSCVPHTTRPRRDNEVDGQDYHFVVSREQMEKDIQDNKFIEAGQFNDNLYGTSIQSVRAVAERGKHCILDVSGNAIKRLQQAQLYPIAIFIKPKSIEALMEMNRRQTYEQANKIYDKAMKLEQEFGEYFTAIVQGDSLEEIYNKIKQIIEDQSGHYIWVPSPEKL
B3: PTK7 (protein, UniProt Q13308 31-1070)
chain: AIVFIKQPSSQDALQGRRALLRCEVEAPGPVHVYWLLDGAPVQDTERRFAQGSSLSFAAVDRLQDSGTFQCVARDDVTGEEARSANASFNIKWIEAGPVVLKHPASEAEIQPQTQVTLRCHIDGHPRPTYQWFRDGTPLSDGQSNHTVSSKERNLTLRPAGPEHSGLYSCCAHSAFGQACSSQNFTLSIADESFARVVLAPQDVVVARYEEAMFHCQFSAQPPPSLQWLFEDETPITNRSRPPHLRRATVFANGSLLLTQVRPRNAGIYRCIGQGQRGPPIILEATLHLAEIEDMPLFEPRVFTAGSEERVTCLPPKGLPEPSVWWEHAGVRLPTHGRVYQKGHELVLANIAESDAGVYTCHAANLAGQRRQDVNITVATVPSWLKKPQDSQLEEGKPGYLDCLTQATPKPTVVWYRNQMLISEDSRFEVFKNGTLRINSVEVYDGTWYRCMSSTPAGSIEAQARVQVLEKLKFTPPPQPQQCMEFDKEATVPCSATGREKPTIKWERADGSSLPEWVTDNAGTLHFARVTRDDAGNYTCIASNGPQGQIRAHVQLTVAVFITFKVEPERTTVYQGHTALLQCEAQGDPKPLIQWKGKDRILDPTKLGPRMHIFQNGSLVIHDVAPEDSGRYTCIAGNSCNIKHTEAPLYVVDKPVPEESEGPGSPPPYKMIQTIGLSVGAAVAYIIAVLGLMFYCKKRCKAKRLQKQPEGEEPEMECLNGGPLQNGQPSAEIQEEVALTSLGSGPAATNKRHSTSDKMHFPRSSLQPITTLGKSEFGEVFLAKAQGLEEGVAETLVLVKSLQSKDEQQQLDFRRELEMFGKLNHANVVRLLGLCREAEPHYMVLEYVDLGDLKQFLRISKSKDEKLKSQPLSTKQKVALCTQVALGMEHLSNNRFVHKDLAARNCLVSAQRQVKVSALGLSKDVYNSEYYHFRQAWVPLRWMSPEAILEGDFSTKSDVWAFGVLMWEVFTHGEMPHGGQADDEVLADLQAGKARLPQPEGCPSKLYRLMQRCWALSPKDRPSFSEIASALGDSTVDSKP
B4: MPP7 (protein, UniProt Q5T2T1 1-576)
chain: MPALSTGSGSDTGLYELLAALPAQLQPHVDSQEDLTFLWDMFGEKSLHSLVKIHEKLHYYEKQSPVPILHGAAALADDLAEELQNKPLNSEIRELLKLLSKPNVKALLSVHDTVAQKNYDPVLPPMPEDIDDEEDSVKIIRLVKNREPLGATIKKDEQTGAIIVARIMRGGAADRSGLIHVGDELREVNGIPVEDKRPEEIIQILAQSQGAITFKIIPGSKEETPSKEGKMFIKALFDYNPNEDKAIPCKEAGLSFKKGDILQIMSQDDATWWQAKHEADANPRAGLIPSKHFQERRLALRRPEILVQPLKVSNRKSSGFRKSFRLSRKDKKTNKSMYECKKSDQYDTADVPTYEEVTPYRRQTNEKYRLVVLVGPVGVGLNELKRKLLISDTQHYGVTVPHTTRARRSQESDGVEYIFISKHLFETDVQNNKFIEYGEYKNNYYGTSIDSVRSVLAKNKVCLLDVQPHTVKHLRTLEFKPYVIFIKPPSIERLRETRKNAKIISSRDDQGAAKPFTEEDFQEMIKSAQIMESQYGHLFDKIIINDDLTVAFNELKTTFDKLETETHWVPVSWLHS
B5: Llgl1 (protein, UniProt Q15334 1-1064)
chain: MMKFRFRRQGADPQREKLKQELFAFNKTVEHGFPNQPSALAFDPELRIMAIGTRSGAVKIYGAPGVEFTGLHRDAATVTQMHFLTGQGRLLSLLDDSSLHLWEIVHHNGCAHLEEALSFQLPSRPGFDGASAPLSLTRVTVVLLVAASDIAALGTEGSSVFFLDVTTLTLLEGQTLAPGEVLRSVPDDYRCGKALGPVESLQGHLRDPTKILIGYSRGLLVIWNQASQCVDHIFLGNQQLESLCWGRDSSTVVSSHSDGSYAVWSVDAGSFPTLQPTVATTPYGPFPCKAINKILWRNCESGGHFIIFSGGMPRASYGDRHCVSVLRAETLVTLDFTSRIIDFFTVHSTRPEDEFDDPQALAVLLEEELVVLDLQTPGWPAVPAPYLAPLHSSAITCSAHVASVPAKLWARIVSAGEQQSPQPVSSALSWPITGGRNLAQEPSQRGLLLTGHEDGTVRFWDASGVALRPLYKLSTAGLFQTDCEHADSLAQAAEDDWPPFRKVGCFDPYSDDPRLGVQKVALCKYTAQMVVAGTAGQVLVLELSDVPVEQAVSVAIIDLLQDREGFTWKGHERLSPRTGPLPWPAGFQPRVLVQCLPPAAVTAVTLHTEWSLVAFGTSHGFGLFDYQRKSPVLARCTLHPNDSLAMEGPLSRVKSLKKSLRQSFRRIRKSRVSGKKRAANASSKLQEANAQLAEQACPHDVEMTPVQRRIEPRSADDSLSGVVRCLYFADTFLRDGAHHGPTMWAGTNSGSVFAYALEVPAAAVGGEKRPEQAVEAVLGKEVQLMHRAPVVAIAVLDGRGRPLPEPYEASRDLAQAPDMQGGHAVLIASEEQFKVFTLPKVSAKTKFKLTAHEGCRVRKVALATFASVACEDYAETCLACLTNLGDVHVFSVPGLRPQVHYSCIRKEDISGIASCVFTRHGQGFYLISPSEFERFSLSARNITEPLCSLDINWPRDATQASYRIRESPKLSQANGTPSILLAPQSLDGSPDPAHSMGPDTPEPPEAALSPMSIDSATSADTTLDTTGDVTVEDVKDFLGSSEESEKNLRNLAEDEAHACAILIK

These binders were tested against sLUR-420GFP (human) (UniProt Q14160) (assay: affinity purification with mass spectrometry; in-cell cross-linking with BMPEO3 (cysteine-specific, 14.7 Å spacer arm) before lysis; GFP-trap; LC-MS/MS; list filtered against wt DLD1 cells and sLUR-P305L-517GFP cells).

binding | Binder
binds | B1
binds | B2
binds | B3
binds | B4
binds | B5

Each binder was assayed against sLUR-517GFP (human) (UniProt Q14160) in the same assay as above.

binding | Binder
binds | B1
binds | B2
binds | B3
binds | B4
binds | B5

These binders were tested against sLUR-402GFP (human) (UniProt Q14160) in the same assay as above.

binding | Binder
binds | B3
